Experiment in all cases: log2 fold change, soluble protein after heating vs DMSO (PISA); higher = thermal stabilisation; K562 cells, 10 uM, 30 min; active = over 0.2 and 3.5 SD of the protein, either way, in both replicates (recomputed)
Compound in experiment [1]: NC(=O)Nc1cc(-c2cccc(F)c2)sc1C(=O)N[C@H]1CCCNC1
In short, it runs like this:
(§1)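 K562 cells (2×10^6 cells/mL) were treated with 10 μM compound for 30 min, and aliquots were heated for 3 min over 48°C-58°C. Pooled aliquots were extracted in PBS with 0.5% NP-40 at 4°C, and the supernatant after 21,000xg for 90 min was measured by TMTpro 16plex LC-MS/MS with channel sums equalised. Reported thermal stability, relative to control samples and from duplicates, is a log2 fold change.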

Sequences of proteins named here, by UniProt entry; tags and fusion partners are left off. A change or cut given only in a name is not applied to a line headed by its entry.
UniProt P62341, whole entry, looked up: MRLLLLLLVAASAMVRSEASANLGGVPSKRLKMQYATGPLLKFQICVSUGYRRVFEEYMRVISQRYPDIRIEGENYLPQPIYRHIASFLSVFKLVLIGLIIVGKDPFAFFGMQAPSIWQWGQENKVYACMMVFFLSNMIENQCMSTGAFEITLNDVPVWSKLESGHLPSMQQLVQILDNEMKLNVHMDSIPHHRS
UniProt Q9UQ13: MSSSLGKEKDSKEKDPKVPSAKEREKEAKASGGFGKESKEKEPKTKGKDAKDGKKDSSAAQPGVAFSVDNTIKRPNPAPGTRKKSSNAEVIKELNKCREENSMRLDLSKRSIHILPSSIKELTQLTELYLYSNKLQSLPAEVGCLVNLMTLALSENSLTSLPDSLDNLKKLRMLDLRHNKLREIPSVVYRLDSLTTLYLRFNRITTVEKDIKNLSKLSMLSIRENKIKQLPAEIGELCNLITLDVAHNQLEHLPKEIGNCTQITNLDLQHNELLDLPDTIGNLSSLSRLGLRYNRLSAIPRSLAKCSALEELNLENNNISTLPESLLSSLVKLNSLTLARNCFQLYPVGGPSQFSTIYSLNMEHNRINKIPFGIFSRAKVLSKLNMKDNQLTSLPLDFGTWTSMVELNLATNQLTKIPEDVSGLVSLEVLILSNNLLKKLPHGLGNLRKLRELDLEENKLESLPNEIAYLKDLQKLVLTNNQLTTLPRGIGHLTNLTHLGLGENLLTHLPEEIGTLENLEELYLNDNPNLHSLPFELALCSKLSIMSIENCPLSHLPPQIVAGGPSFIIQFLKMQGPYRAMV
UniProt P36955: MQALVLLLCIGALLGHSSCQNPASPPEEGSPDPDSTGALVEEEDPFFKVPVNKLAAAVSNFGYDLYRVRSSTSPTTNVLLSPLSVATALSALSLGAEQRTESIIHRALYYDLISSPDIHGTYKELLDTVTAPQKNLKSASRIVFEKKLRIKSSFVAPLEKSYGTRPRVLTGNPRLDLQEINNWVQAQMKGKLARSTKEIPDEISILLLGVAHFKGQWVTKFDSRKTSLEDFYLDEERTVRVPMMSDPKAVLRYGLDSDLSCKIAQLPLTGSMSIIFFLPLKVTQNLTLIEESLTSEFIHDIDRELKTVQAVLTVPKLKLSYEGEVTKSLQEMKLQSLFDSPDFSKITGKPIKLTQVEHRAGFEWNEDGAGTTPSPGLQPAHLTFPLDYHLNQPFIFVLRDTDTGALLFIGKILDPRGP
UniProt P31947: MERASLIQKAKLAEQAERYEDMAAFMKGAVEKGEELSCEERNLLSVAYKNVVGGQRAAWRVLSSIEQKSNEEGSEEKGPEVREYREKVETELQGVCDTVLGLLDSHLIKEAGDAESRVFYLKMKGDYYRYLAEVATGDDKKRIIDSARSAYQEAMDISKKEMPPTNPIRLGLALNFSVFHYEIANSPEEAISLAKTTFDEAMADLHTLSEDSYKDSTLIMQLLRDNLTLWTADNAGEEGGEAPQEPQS
UniProt A0MZ66, whole entry, looked up: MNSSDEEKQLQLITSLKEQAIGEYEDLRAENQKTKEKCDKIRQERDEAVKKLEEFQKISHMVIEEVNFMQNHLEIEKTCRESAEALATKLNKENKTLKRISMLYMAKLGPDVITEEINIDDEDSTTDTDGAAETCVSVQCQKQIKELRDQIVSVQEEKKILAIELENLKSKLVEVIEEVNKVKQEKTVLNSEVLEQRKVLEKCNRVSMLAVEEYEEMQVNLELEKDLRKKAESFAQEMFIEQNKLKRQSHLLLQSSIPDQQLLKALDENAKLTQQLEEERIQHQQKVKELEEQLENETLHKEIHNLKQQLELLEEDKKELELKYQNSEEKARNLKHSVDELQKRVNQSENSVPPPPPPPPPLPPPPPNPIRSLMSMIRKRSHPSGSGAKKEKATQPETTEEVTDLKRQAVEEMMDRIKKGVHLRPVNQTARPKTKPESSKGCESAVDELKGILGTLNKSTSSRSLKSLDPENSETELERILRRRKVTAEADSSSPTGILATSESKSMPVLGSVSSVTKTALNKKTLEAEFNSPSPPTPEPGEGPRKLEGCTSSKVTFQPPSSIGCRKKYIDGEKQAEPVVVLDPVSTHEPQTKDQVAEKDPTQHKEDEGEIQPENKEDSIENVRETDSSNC
UniProt O95562: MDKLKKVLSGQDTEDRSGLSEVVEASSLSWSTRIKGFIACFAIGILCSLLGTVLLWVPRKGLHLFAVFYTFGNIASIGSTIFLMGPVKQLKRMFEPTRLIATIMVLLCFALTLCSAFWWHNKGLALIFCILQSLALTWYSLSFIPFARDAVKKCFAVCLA
UniProt Q13796: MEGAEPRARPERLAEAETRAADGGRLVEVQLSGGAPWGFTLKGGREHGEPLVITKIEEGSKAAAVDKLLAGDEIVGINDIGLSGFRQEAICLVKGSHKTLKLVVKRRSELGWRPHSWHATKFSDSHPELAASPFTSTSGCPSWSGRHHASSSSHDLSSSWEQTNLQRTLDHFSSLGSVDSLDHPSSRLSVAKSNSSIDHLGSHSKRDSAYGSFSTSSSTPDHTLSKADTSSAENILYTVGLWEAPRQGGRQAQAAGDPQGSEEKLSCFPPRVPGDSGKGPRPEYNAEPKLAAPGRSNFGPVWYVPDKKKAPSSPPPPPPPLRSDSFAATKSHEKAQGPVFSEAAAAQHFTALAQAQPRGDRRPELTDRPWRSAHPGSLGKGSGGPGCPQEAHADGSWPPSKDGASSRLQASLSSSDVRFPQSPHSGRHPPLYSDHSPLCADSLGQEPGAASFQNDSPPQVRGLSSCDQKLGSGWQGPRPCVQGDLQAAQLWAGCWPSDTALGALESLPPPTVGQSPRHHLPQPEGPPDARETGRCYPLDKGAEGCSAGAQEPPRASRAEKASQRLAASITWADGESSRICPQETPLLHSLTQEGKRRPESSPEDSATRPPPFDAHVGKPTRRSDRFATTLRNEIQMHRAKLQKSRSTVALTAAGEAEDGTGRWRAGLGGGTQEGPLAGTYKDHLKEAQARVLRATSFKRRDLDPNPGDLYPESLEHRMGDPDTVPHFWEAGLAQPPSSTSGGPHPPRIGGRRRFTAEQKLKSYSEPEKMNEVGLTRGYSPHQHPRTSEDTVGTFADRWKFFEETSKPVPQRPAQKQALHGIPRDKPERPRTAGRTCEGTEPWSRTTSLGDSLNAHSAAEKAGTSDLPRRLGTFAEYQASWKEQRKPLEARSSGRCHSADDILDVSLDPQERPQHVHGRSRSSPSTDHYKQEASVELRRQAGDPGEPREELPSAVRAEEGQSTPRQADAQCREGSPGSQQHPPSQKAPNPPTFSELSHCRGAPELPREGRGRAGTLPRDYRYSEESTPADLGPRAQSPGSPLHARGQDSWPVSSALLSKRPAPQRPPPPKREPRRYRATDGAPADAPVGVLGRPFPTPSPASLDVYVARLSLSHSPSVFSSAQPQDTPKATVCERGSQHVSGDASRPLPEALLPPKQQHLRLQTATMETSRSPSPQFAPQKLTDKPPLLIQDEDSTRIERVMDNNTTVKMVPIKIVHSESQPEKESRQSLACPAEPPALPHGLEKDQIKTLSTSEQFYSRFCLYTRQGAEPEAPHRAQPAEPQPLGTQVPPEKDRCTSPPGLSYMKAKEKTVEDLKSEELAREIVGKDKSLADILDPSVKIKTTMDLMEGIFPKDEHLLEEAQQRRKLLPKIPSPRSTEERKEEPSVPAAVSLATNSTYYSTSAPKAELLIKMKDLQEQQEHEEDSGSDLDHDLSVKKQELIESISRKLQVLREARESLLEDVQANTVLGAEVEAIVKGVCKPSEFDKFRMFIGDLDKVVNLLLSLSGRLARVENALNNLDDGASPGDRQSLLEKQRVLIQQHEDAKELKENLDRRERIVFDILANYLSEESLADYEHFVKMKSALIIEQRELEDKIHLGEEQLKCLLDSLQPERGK
UniProt Q12872: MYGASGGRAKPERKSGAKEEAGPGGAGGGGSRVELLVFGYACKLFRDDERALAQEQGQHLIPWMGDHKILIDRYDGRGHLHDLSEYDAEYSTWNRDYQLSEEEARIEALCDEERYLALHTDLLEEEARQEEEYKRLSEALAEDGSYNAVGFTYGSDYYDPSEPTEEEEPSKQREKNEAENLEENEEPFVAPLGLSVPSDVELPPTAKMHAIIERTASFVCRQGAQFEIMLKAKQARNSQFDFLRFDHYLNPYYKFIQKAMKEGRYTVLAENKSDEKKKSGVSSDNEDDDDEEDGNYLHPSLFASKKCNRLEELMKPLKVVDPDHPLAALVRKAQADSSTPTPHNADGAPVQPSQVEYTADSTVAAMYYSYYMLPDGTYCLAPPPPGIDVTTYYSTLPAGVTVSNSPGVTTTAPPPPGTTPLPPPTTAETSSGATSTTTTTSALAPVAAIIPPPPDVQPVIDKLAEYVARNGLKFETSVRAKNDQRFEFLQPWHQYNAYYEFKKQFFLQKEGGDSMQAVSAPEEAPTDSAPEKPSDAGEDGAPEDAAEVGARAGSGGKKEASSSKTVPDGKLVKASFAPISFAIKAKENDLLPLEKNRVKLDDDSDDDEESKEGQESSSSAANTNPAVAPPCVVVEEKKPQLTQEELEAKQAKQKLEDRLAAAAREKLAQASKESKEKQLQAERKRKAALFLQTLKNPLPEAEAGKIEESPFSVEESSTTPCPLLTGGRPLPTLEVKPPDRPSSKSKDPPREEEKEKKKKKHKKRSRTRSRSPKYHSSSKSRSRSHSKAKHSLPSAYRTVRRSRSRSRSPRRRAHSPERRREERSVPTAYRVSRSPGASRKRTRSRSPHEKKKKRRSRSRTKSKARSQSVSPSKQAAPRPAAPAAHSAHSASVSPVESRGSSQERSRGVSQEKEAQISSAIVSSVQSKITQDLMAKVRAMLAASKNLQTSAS
UniProt Q8NEM2: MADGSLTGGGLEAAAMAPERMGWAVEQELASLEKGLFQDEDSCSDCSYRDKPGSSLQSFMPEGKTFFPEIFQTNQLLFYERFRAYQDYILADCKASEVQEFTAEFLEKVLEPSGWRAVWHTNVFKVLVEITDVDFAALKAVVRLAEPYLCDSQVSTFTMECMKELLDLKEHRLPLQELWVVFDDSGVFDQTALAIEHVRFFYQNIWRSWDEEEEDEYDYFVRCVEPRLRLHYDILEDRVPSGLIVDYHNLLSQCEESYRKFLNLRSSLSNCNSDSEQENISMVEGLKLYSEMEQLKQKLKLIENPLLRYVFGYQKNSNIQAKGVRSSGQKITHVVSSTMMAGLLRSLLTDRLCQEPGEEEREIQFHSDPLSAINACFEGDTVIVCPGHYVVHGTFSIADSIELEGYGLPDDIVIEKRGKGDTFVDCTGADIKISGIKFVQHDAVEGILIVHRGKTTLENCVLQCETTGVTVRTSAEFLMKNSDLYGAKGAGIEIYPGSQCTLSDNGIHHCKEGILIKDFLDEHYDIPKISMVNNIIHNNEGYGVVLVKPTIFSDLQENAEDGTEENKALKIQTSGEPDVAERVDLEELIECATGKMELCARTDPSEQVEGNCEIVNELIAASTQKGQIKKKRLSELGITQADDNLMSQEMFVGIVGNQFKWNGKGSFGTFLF
UniProt O14796: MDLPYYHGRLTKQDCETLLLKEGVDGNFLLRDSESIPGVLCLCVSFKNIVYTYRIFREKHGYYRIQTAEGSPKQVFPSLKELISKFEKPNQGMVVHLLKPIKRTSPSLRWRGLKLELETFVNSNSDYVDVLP
UniProt Q13530: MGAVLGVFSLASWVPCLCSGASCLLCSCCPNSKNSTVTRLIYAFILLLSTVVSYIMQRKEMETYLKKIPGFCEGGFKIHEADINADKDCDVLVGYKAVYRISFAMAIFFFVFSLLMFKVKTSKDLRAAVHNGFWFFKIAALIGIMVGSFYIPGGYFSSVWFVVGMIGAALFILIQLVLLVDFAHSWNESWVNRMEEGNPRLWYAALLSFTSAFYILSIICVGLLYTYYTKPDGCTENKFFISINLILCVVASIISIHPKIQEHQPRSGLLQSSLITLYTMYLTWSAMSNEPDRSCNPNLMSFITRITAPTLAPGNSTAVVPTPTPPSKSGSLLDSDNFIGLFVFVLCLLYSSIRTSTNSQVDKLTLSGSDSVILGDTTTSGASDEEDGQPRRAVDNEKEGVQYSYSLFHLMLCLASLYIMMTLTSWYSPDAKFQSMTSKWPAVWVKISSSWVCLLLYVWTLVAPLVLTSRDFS
UniProt Q9Y371: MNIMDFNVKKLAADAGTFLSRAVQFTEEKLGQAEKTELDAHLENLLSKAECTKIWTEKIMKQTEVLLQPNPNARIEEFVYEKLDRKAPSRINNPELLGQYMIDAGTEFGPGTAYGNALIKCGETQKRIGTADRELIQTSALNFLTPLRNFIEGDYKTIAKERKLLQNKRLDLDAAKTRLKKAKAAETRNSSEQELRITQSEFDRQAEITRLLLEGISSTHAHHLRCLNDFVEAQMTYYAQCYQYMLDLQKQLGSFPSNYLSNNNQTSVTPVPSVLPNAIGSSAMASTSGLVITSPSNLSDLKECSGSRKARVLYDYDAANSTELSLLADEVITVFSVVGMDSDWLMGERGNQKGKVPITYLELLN

Compound in experiment [2]: NC(=O)c1cnc(N[C@@H]2CCCC[C@@H]2N)nc1Nc1cccc(-n2nccn2)c1
The method, boiled down: as §1

Compound in experiment [3]: NC1(c2ccc(-c3nc4ccn5c(=O)[nH]nc5c4cc3-c3ccccc3)cc2)CCC1
In short, it runs like this: as §1

Compound in experiment [4]: NCC(=O)Nc1ccc(-n2nc(C(F)(F)F)cc2-c2ccc3c(ccc4ccccc43)c2)cc1
In short, it runs like this: as §1

Compound in a further experiment: Nc1ccccc1NC(=O)c1ccc(CNC(=O)OCc2cccnc2)cc1 [entinostat]
In short, it runs like this: as §1

Compound in another experiment: O=C(CCCCCCC(=O)Nc1ccccc1)NO [vorinostat]
The method, boiled down: as §1

Compound in another experiment: O=C(CCCCCCNC(=O)c1cnc(N(c2ccccc2)c2ccccc2Cl)nc1)NO [citarinostat]
The method, boiled down:
as §1

Compound in another experiment: O=C(O)c1ccc2c(c1)nc(Nc1cccc(Cl)c1)c1ccncc12 [silmitasertib]
In short, it runs like this: as §1

Compound in experiment [5]: O=C1NC(=O)C(c2cnc3ccccn23)=C1c1cn2c3c(cc(F)cc13)CN(C(=O)N1CCCCC1)CC2
In short, it runs like this:
as §1

Compound in experiment [6]: c1cc(OCCN2CCCCC2)cc(-c2n[nH]c3ccc(-c4nnc[nH]4)cc23)c1
In short, it runs like this:
as §1

This is one part of the list.

For SELENOS (UniProt Q9BQE4), the log2 fold change in experiment [1] is inactive: 0.047; in [2] it was inactive: -0.068; in experiment [3], inactive: -0.004; in experiment [4] it was inactive: -0.007; with entinostat, inactive: -0.014; with vorinostat, inactive: 0.007. The log2 fold change with citarinostat is inactive: 0.011; in the experiment with silmitasertib, inactive: 0.016; in experiment [5], inactive: -0.122; in experiment [6], inactive: -0.018.
For the target SELENOT (UniProt P62341), the log2 fold change in experiment [1] was inactive: 0.077; in [2] it was inactive: 0.011; in experiment [3], inactive: -0.141; in experiment [4] it was inactive: -0.036; with entinostat, inactive: 0.041; with vorinostat, inactive: 0.113. The log2 fold change with citarinostat is inactive: -0.117; in the experiment with silmitasertib it was inactive: -0.007; in experiment [5] it was inactive: 0.04; in [6] it was inactive: -0.186.
Turning to SHOC2 (UniProt Q9UQ13), the log2 fold change is inactive: -0.009 in experiment [1]; inactive: 0.009 in experiment [2]; inactive: -0.132 in experiment [3]; inactive: -0.031 in experiment [4]; inactive: 0.013 in the experiment with entinostat; inactive: 0.045 in the experiment with vorinostat. Also, the log2 fold change in the experiment with citarinostat was inactive: -0.13; in the experiment with silmitasertib it was inactive: 0.038; in experiment [5], inactive: -0.054; in [6] it was inactive: 0.251.
With SERPINF1 (UniProt P36955), the log2 fold change was inactive: -0.03 in [1]; inactive: -0.007 in experiment [2]; inactive: 0.176 in experiment [3]; inactive: 0.023 in [4]; inactive: -0.059 with entinostat; inactive: -0.058 with vorinostat. Also, the log2 fold change was inactive: -0.008 in the experiment with citarinostat, inactive: 0.039 in the experiment with silmitasertib, inactive: -0.002 in experiment [5] and inactive: 0.384 in [6].
For SFN (UniProt P31947), the log2 fold change in experiment [1] is inactive: -0.035; in [2], inactive: -0.064; in experiment [3], inactive: 0.112; in [4], inactive: -0.082; with entinostat, inactive: -0.006; in the experiment with vorinostat, inactive: -0.009. Further, the log2 fold change with citarinostat is inactive: -0.135; with silmitasertib, inactive: -0.061; in experiment [5] it was inactive: -0.046; in experiment [6], inactive: 0.02.
Take SHMT2 (UniProt P34897): the log2 fold change in [1] was inactive: 0.012; in [2], inactive: -0.024; in experiment [3], inactive: 0.001; in experiment [4] it was inactive: -0.013; in the experiment with entinostat, inactive: -0.031; with vorinostat, inactive: -0.045. Also, the log2 fold change with citarinostat was inactive: -0.006; with silmitasertib, inactive: -0.019; in [5], inactive: -0.013; in experiment [6] it was inactive: -0.006.
As to SHTN1 isoform 3 (UniProt A0MZ66), the log2 fold change in [1] is inactive: -0.073; in experiment [2], inactive: -0.12; in experiment [3], inactive: -0.005; in experiment [4], inactive: -0.083; with entinostat it was inactive: 0.004; with vorinostat, inactive: 0.027. In addition, the log2 fold change was inactive: -0.043 with citarinostat, inactive: 0.138 with silmitasertib, inactive: 0.021 in experiment [5] and inactive: -0.136 in [6].
Take SFT2D2 (UniProt O95562): the log2 fold change in [1] was inactive: -0.076; in experiment [2], inactive: 0.198; in [3], inactive: 0.017; in experiment [4], inactive: 0.024; in the experiment with entinostat, inactive: 0.034; with vorinostat, inactive: -0.104. For the same target, the log2 fold change with citarinostat is inactive: -0.074; with silmitasertib it was inactive: 0.029; in experiment [5], inactive: -0.067; in experiment [6], inactive: 0.082.
As to SHROOM2 (UniProt Q13796), the log2 fold change in [1] is inactive: 0.024; in experiment [2] it was inactive: -0.09; in experiment [3], inactive: 0.275; in [4], inactive: 0.006; with entinostat, inactive: -0.037; with vorinostat, inactive: 0.068. Besides, the log2 fold change in the experiment with citarinostat is inactive: 0.057; with silmitasertib it was inactive: -0.141; in experiment [5], inactive: -0.088; in [6], inactive: 0.057.
For the target SFSWAP isoform 2 (UniProt Q12872), the log2 fold change in [1] was inactive: -0.054; in experiment [2], inactive: -0.031; in experiment [3], inactive: 0.051; in experiment [4], inactive: -0.164; in the experiment with entinostat, inactive: 0.063; with vorinostat, inactive: -0.052. Also, the log2 fold change with citarinostat was inactive: 0.14; with silmitasertib, inactive: -0.038; in experiment [5] it was inactive: -0.076; in [6], inactive: -0.228.
Regarding SHCBP1 (UniProt Q8NEM2), the log2 fold change in experiment [1] is inactive: 0.01; in [2], inactive: -0.017; in experiment [3], inactive: -0.107; in [4] it was inactive: -0.08; with entinostat, inactive: -0.063; in the experiment with vorinostat, inactive: 0.039. The log2 fold change was inactive: 0.136 in the experiment with citarinostat, inactive: 0.025 with silmitasertib, inactive: -0.087 in experiment [5] and inactive: -0.091 in experiment [6].
Turning to SH2D1B (UniProt O14796), the log2 fold change was active: -1.1 in experiment [1]; inactive: 0.04 in experiment [2]; inactive: -0.135 in [3]; inactive: -0.024 in [4]; inactive: 0.055 with entinostat; inactive: 0.101 with vorinostat. Further, the log2 fold change was inactive: 0.413 in the experiment with citarinostat, inactive: -0.111 in the experiment with silmitasertib, inactive: -0.018 in experiment [5] and inactive: -0.062 in [6].
For the target SERINC3 (UniProt Q13530), the log2 fold change in [1] is inactive: -0.111; in [2], inactive: -0.027; in [3], inactive: -0.195; in experiment [4] it was inactive: -0.267; with entinostat, inactive: -0.07; with vorinostat, inactive: -0.044. Also, the log2 fold change in the experiment with citarinostat is inactive: -0.093; with silmitasertib, inactive: 0.054; in experiment [5] it was inactive: 0.018; in experiment [6] it was inactive: -0.031.
On to SH3GLB1 isoform 2 (UniProt Q9Y371), for which the log2 fold change in [1] is inactive: -0.078; in experiment [2], inactive: -0.137; in experiment [3], inactive: -0.238; in experiment [4], inactive: -0.042; with entinostat, inactive: 0.123; with vorinostat it was inactive: 0.147. Moreover, the log2 fold change was inactive: 0.121 with citarinostat, inactive: 0.001 in the experiment with silmitasertib, inactive: -0.017 in experiment [5] and inactive: -0.116 in [6].

The values above are taken from the supplement of paper PMC10849652.
